Reference: publication doi:10.1101/2022.04.11.487628
Results are given in words; binding and its absence hold for the method and conditions named. For some assays here: In cells and extracts the contact can be indirect. Some results given as binding are weak or reduced against the parent protein; the word gives no strength. For some assays here: Sequences can lack the tags named with a protein.

Chains of the proteins cited; added tags and fusions are not shown.
UniProt P63279: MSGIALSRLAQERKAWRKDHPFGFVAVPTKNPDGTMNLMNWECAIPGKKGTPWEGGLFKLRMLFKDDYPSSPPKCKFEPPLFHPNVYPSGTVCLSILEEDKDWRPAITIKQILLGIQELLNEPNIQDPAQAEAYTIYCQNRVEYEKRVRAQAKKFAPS

Assays:
[1] = biological target: HA-Strep-mCherry tagged full-length UBC9 wild-type (^mCUBC9) (UniProt P63279); assay: co-IP
[2] = biological target: T1, 6x-His-EME1 (bacterially co-expressed with MUS81) (human) (UniProt Q96AY2); assay: co-purification
T1 sequence: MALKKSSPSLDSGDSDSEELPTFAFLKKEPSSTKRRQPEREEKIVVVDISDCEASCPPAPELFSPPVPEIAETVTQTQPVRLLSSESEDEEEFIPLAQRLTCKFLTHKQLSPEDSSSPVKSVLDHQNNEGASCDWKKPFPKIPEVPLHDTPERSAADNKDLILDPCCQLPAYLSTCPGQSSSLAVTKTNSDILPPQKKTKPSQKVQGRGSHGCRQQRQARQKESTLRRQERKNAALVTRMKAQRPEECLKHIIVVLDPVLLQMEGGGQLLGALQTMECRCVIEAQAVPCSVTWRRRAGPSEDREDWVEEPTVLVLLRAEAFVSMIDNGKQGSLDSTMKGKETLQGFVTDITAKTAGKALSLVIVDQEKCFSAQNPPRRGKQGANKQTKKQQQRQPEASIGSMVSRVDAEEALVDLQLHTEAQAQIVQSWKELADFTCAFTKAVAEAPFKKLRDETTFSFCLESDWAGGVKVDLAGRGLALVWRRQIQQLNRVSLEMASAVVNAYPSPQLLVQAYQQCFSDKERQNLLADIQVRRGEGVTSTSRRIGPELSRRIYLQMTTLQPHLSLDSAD

B1: EME1 co-precipitated with ^mCUBC9 (detected with anti-EME1 serum) (protein, UniProt Q96AY2 1-570)
chain: T1 sequence
binding [1]: binds

B2: MUS81 (bacterially co-expressed with 6x-His-EME1) (enzyme, UniProt Q96NY9 1-551)
chain: MAAPVRLGRKRPLPACPNPLFVRWLTEWRDEATRSRRRTRFVFQKALRSLRRYPLPLRSGKEAKILQHFGDGLCRMLDERLQRHRTSGGDHAPDSPSGENSPAPQGRLAEVQDSSMPVPAQPKAGGSGSYWPARHSGARVILLVLYREHLNPNGHHFLTKEELLQRCAQKSPRVAPGSARPWPALRSLLHRNLVLRTHQPARYSLTPEGLELAQKLAESEGLSLLNVGIGPKEPPGEETAVPGAASAELASEAGVQQQPLELRPGEYRVLLCVDIGETRGGGHRPELLRELQRLHVTHTVRKLHVGDFVWVAQETNPRDPANPGELVLDHIVERKRLDDLCSSIIDGRFREQKFRLKRCGLERRVYLVEEHGSVHNLSLPESTLLQAVTNTQVIDGFFVKRTADIKESAAYLALLTRGLQRLYQGHTLRSRPWGTPGNPESGAMTSPNPLCSLLTFSDFNAGAIKNKAQSVREVFARQLMQVRGVSGEKAAALVDRYSTPASLLAAYDACATPKEQETLLSTIKCGRLQRNLGPALSRTLSQLYCSYGPLT
binding [2]: binds
